For test [1], the system named is BDF1 mice, L1210 leukemia sc, survival T/C. As to the kind of experiment: NCI In Vivo Anticancer Drug Screen. Data for tumor model L1210 Leukemia (subcutaneous) in B6D2F1 (BDF1) mice. The settings on record: T/C endpoint: median survival time, higher T/C = longer survival. The essentials: (§1)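 Mice carrying transplanted tumors received test compounds, and survival or tumor size was measured. Values are the treated-group measurement (T) divided by that of the vehicle-treated control group (C).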

Test [2] deals with BDF1 mice, L1210 leukemia sc. The test is described as above. The following applies: T/C endpoint: median survival time, higher T/C = longer survival. The method in brief: as §1
Setting [3] is: dose: 3.0 mg/kg/injection, schedule: Q01DX Z (sc), vehicle: saline.
Where [4] appears, read: dose: 5.0 mg/kg/injection, schedule: Q01DX Z (sc), vehicle: saline.
Setting [5] is: dose: 8.4 mg/kg/injection, schedule: Q01DX Z (sc), vehicle: saline.
Setting [6] is: dose: 14.0 mg/kg/injection, schedule: Q01DX Z (sc), vehicle: saline.
Setting [7] is: dose: 23.0 mg/kg/injection, schedule: Q01DX Z (sc), vehicle: saline.
Where [8] appears, read: dose: 65.0 mg/kg/injection, schedule: Q01DX Z (sc), vehicle: saline.

Our source for the survivor count and T/C values is PubChem BioAssay AID250 (DTP/NCI, 2004).

The list is a part of this screen's results and no random one: it gathers tests that were run many times, whatever their T/C, doses with no T/C, and many T/C values between a quarter and a half above the control. Other doses and runs of a compound stand elsewhere. T/C is the treated group as % of the vehicle group. Some doses have a count of surviving animals in place of a T/C: the source files T/C as zero there, which appears to mark a toxic dose or a test without result, not a measured value. Some survivor counts are full or nearly so, which does not show that the dose was tolerated: the source hardly ever lists a survival T/C far under the control, and the zero likely stands for such cases as well. For part of these data: Survivors were counted at the toxicity check, usually on the fifth day, unless a day is given; later deaths do not show. Schedules are NCI's codes, taken here to give the interval after Q, in days (D) or hours (H), and the number of doses after X. Some schedules carry Z or #; the key to these is not given. Some doses were run more than once; the results are listed from low to high. For survival time, the PubChem record calls one and a half times the control and up active, and a quarter to a half above the control has no call in these data; cut-offs in other NCI protocols can differ. Some T/C values carry the count of animals alive at the toxicity check (mostly the fifth day); without a count, all were alive then. Additions like (4×) give the number of equal values in this list.

As for `CN(N=O)C(N)=O`, the survivor count in test [1] (setting [3]) was 2 of 10; in test [1] (setting [4]), 4 of 10; in test [1] (setting [5]), 4 of 10 and 5 of 10; in test [1] (setting [6]), 4 of 10 and 5 of 10; in test [1] (setting [7]), 5 of 10; in test [1] (dose: 48.0 mg/kg/injection, schedule: Q01DX009 (ip), vehicle: saline) it was 8 of 8. In addition, the survivor count in test [1] (setting [8]) is 6 of 10; in test [1] (dose: 240.0 mg/kg/injection, schedule: Q01DX Z (sc), vehicle: saline), 3 of 10. Also, the T/C in test [2] (dose: 12.0 mg/kg/injection, schedule: Q01DX009 (ip), vehicle: saline) was 140 % of control [7 of 8 alive]; in test [2] (dose: 24.0 mg/kg/injection, schedule: Q01DX009 (ip), vehicle: saline), 140 % of control; in test [2] (dose: 51.8 mg/kg/injection, schedule: Q01DX Z (sc), vehicle: saline), 145 % of control [9 of 10 alive]; in test [2] (setting [8]) it was 140 % of control [9 of 10 alive]; in test [2] (dose: 108.0 mg/kg/injection, schedule: Q01DX Z (sc), vehicle: saline), 127 % of control.
Consider `CC[C@]1(O)C[C@H]2CN(CCc3c([nH]c4ccccc34)[C@@](C(=O)OC)(c3cc4c(cc3OC)N(C=O)[C@H]3[C@@](O)(C(=O)OC)[C@H](OC(C)=O)[C@]5(CC)C=CCN6CC[C@]43[C@@H]65)C2)C1`, for which the T/C in test [1] (dose: 0.25 mg/kg/injection, schedule: Q01DX009 (sc), vehicle: water, evaluated on day 7) was 107 and 109 % of control; in test [1] (dose: 0.25 mg/kg/injection, schedule: Q01DX009 (sc), vehicle: water, evaluated on day 18), 105 % of control; in test [1] (dose: 0.25 mg/kg/injection, schedule: Q01DX009 (sc), vehicle: water, evaluated on day 19), 112 % of control; in test [1] (dose: 0.5 mg/kg/injection, schedule: Q01DX009 (sc), vehicle: water, evaluated on day 7) it was 115 and 122 % of control; in test [1] (dose: 0.5 mg/kg/injection, schedule: Q01DX009 (sc), vehicle: water, evaluated on day 18) it was 122 % of control; in test [1] (dose: 0.5 mg/kg/injection, schedule: Q01DX009 (sc), vehicle: water, evaluated on day 19) it was 118 % of control. The T/C in test [1] (dose: 1.0 mg/kg/injection, schedule: Q01DX009 (sc), vehicle: water, evaluated on day 7) was 100 and 119 % of control; in test [1] (dose: 1.0 mg/kg/injection, schedule: Q01DX009 (sc), vehicle: water, evaluated on day 18), 94 % of control [6 of 8 alive]; in test [1] (dose: 2.0 mg/kg/injection, schedule: Q01DX009 (sc), vehicle: water, evaluated on day 7) it was 81 and 111 % of control; in test [1] (dose: 2.0 mg/kg/injection, schedule: Q01DX009 (sc), vehicle: water, evaluated on day 19) it was 112 % of control; in test [1] (dose: 4.0 mg/kg/injection, schedule: Q01DX009 (sc), vehicle: water, evaluated on day 7), 78 and 111 % of control; in test [1] (dose: 4.0 mg/kg/injection, schedule: Q01DX009 (sc), vehicle: water, evaluated on day 19) it was 112 % of control. The T/C is 66 and 104 % of control in test [1] (dose: 8.0 mg/kg/injection, schedule: Q01DX009 (sc), vehicle: water, evaluated on day 7); 106 % of control [7 of 8 alive] in test [1] (dose: 8.0 mg/kg/injection, schedule: Q01DX009 (sc), vehicle: water, evaluated on day 19); 125 % of control in test [2] (dose: 1.0 mg/kg/injection, schedule: Q01DX009 (sc), vehicle: water, evaluated on day 19); 140 % of control in test [2] (dose: 4.0 mg/kg/injection, schedule: Q01DX001 (sc), vehicle: water, evaluated on day 7); 144 % of control in test [2] (dose: 4.0 mg/kg/injection, schedule: Q01DX001 (sc), vehicle: water, evaluated on day 24). Moreover, the survivor count in test [1] (dose: 2.0 mg/kg/injection, schedule: Q01DX009 (sc), vehicle: water) is 2 of 8; in test [1] (dose: 4.0 mg/kg/injection, schedule: Q01DX009 (sc), vehicle: water) it was 1 of 8; in test [1] (dose: 8.0 mg/kg/injection, schedule: Q01DX009 (sc), vehicle: water), 0 of 8.
`CCCCCCOP(=O)(N1CC1)N1CC1`: the T/C in test [1] (dose: 1.8 mg/kg/injection, schedule: Q01DX Z (sc), vehicle: saline) is 110, 112, 115 [9 of 10 alive], 120 % of control; in test [1] (setting [3]) it was 150 [8 of 10 alive] and 160 % of control; in test [1] (setting [4]), 164, 165, 175, 210 % of control; in test [1] (setting [5]), 150, 176, 180, 195 % of control; in test [1] (setting [6]) it was 160, 160 [8 of 10 alive], 180 % of control (2×); in test [1] (setting [7]), 150 (2×), 155 [8 of 10 alive], 180 % of control. The T/C was 128 and 140 % of control in test [2] (setting [3]); 140 % of control in test [2] (setting [5]); 140 % of control in test [2] (setting [6]); 130 % of control in test [2] (dose: 14.0 mg/kg/injection, schedule: Q## X Z (sc), vehicle: saline); 136 % of control in test [2] (setting [7]); 140 % of control in test [2] (setting [8]). Also, the T/C in test [2] (dose: 180.0 mg/kg/injection, schedule: Q## X Z (sc), vehicle: saline) was 130 % of control; in test [2] (dose: 300.0 mg/kg/injection, schedule: Q01DX001 (sc), vehicle: saline), 130 % of control.
In the case of `OCC1OC(n2cnc3c(=S)nc[nH]c32)C(O)C1O` (stereo not given), the survivor count in test [1] (dose: 3200.0 mg/kg/injection, schedule: Q01DX001 (ip), vehicle: other) is listed as 2 of 8; in test [1] (dose: 3200.0 mg/kg/injection, schedule: Q01DX009 (ip), vehicle: other) it was 2 of 8; in test [1] (dose: 3200.0 mg/kg/injection, schedule: Q04DX003 (ip), vehicle: other), 4 of 8. For the same molecule, the T/C is 144 % of control in test [2] (dose: 50.0 mg/kg/injection, schedule: Q03HX024 (sc), vehicle: other); 127 % of control in test [2] (dose: 800.0 mg/kg/injection, schedule: Q01DX001 (ip), vehicle: other); 127 % of control in test [2] (dose: 800.0 mg/kg/injection, schedule: Q01DX001 (sc), vehicle: other); 133 % of control in test [2] (dose: 800.0 mg/kg/injection, schedule: Q04DX003 (ip), vehicle: other); 127 % of control in test [2] (dose: 800.0 mg/kg/injection, schedule: Q04DX003 (sc), vehicle: other); 133 % of control in test [2] (dose: 1600.0 mg/kg/injection, schedule: Q01DX001 (ip), vehicle: other). Also, the T/C in test [2] (dose: 1600.0 mg/kg/injection, schedule: Q01DX001 (sc), vehicle: other) was 133 % of control; in test [2] (dose: 1600.0 mg/kg/injection, schedule: Q04DX003 (ip), vehicle: other) it was 144 % of control; in test [2] (dose: 1600.0 mg/kg/injection, schedule: Q04DX003 (sc), vehicle: other) it was 144 % of control; in test [2] (dose: 3200.0 mg/kg/injection, schedule: Q01DX001 (sc), vehicle: other) it was 133 % of control.
